Data as given in the supplement of paper PMC10849652.
The other results are listed elsewhere or left out.

By UniProt entry, the sequences of proteins in these tests, tags left out. Where a name states a change or a piece, a line headed by the entry shows the natural chain unless it says otherwise.
UniProt P39059: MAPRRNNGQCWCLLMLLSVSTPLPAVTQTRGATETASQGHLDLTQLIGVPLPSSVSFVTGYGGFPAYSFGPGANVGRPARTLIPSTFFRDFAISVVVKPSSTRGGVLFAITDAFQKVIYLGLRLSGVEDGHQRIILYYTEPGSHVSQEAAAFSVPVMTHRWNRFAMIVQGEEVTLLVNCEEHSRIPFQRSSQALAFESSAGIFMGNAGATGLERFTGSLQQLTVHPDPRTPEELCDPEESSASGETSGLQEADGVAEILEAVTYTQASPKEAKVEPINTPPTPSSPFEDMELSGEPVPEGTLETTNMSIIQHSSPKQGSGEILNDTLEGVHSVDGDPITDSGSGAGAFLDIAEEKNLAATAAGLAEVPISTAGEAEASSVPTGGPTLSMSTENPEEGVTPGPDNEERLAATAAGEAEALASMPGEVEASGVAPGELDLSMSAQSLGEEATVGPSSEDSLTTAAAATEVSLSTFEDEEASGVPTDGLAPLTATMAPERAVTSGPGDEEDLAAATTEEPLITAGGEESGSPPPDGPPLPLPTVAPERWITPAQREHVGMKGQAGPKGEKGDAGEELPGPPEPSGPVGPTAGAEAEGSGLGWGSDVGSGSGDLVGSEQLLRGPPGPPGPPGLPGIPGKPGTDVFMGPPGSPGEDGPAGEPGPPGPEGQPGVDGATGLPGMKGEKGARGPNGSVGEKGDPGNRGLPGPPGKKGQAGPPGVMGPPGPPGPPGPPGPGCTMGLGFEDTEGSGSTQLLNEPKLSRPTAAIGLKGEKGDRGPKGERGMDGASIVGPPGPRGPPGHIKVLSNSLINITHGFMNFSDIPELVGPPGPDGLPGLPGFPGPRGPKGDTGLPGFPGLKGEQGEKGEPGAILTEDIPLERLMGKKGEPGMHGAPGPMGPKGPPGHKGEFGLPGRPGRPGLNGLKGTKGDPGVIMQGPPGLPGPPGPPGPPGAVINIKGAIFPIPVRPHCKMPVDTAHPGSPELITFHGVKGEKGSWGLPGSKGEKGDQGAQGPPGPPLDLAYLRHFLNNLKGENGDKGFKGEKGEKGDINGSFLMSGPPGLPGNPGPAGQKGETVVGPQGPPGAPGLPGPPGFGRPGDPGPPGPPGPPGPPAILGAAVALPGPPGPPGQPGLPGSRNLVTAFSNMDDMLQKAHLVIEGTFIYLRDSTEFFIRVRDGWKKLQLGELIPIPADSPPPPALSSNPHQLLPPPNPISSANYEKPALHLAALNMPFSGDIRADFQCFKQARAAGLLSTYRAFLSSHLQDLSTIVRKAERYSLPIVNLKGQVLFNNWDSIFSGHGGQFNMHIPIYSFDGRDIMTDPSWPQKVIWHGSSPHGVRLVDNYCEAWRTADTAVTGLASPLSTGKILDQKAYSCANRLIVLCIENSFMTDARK
UniProt Q9GZQ3, whole entry, looked up: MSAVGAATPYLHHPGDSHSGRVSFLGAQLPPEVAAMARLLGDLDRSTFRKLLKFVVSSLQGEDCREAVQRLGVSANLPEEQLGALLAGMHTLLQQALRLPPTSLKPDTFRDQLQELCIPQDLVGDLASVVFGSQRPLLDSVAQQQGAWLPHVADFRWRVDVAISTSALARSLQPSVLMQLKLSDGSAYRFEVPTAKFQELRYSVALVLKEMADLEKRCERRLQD
UniProt Q10570: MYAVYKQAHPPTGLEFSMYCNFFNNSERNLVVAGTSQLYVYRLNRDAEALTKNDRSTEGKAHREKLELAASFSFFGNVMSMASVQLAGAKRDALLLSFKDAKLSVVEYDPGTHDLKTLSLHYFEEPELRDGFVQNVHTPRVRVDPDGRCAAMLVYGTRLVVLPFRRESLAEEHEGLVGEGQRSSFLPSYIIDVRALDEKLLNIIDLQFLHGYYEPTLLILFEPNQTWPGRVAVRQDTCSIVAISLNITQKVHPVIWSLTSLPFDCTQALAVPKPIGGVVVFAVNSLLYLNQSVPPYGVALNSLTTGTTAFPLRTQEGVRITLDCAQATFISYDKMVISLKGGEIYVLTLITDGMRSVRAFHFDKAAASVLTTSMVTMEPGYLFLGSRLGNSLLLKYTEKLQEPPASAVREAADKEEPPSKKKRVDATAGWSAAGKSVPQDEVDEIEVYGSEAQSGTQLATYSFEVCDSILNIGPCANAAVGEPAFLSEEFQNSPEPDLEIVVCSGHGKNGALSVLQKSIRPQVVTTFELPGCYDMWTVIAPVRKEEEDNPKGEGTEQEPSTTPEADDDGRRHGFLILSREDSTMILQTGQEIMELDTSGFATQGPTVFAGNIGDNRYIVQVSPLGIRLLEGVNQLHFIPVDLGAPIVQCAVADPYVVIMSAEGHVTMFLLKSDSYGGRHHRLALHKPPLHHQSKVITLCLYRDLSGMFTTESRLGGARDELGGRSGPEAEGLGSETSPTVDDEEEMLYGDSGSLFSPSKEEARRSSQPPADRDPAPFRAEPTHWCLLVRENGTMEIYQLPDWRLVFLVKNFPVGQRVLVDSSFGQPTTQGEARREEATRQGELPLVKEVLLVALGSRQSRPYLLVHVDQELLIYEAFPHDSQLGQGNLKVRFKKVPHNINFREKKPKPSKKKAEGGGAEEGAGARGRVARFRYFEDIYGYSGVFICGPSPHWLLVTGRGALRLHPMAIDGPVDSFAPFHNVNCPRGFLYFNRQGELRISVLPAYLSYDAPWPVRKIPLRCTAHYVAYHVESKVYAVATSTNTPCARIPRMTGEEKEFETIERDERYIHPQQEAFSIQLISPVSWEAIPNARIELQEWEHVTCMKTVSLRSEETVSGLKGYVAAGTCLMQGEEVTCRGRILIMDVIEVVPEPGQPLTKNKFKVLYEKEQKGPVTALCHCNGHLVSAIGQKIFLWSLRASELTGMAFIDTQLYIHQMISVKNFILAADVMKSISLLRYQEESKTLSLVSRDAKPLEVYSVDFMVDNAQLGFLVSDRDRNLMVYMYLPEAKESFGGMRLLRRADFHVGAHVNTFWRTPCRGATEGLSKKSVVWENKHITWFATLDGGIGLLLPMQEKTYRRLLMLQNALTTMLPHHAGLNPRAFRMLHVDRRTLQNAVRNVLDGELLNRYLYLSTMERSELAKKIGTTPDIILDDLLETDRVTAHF
UniProt P29373: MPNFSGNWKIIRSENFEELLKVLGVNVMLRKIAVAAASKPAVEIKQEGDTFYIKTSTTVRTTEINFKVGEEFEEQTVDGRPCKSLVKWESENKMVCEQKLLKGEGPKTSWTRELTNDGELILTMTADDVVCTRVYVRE
UniProt P13073, whole entry, looked up: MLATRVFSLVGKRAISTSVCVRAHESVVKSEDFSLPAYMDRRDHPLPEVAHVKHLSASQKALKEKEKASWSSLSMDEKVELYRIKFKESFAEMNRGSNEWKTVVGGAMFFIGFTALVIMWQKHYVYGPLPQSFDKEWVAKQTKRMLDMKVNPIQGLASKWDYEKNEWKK
UniProt P10606, whole entry, looked up: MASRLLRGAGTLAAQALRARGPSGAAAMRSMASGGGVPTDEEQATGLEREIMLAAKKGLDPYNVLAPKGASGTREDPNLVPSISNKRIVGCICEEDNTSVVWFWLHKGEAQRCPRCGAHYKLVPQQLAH
UniProt Q9UBW8: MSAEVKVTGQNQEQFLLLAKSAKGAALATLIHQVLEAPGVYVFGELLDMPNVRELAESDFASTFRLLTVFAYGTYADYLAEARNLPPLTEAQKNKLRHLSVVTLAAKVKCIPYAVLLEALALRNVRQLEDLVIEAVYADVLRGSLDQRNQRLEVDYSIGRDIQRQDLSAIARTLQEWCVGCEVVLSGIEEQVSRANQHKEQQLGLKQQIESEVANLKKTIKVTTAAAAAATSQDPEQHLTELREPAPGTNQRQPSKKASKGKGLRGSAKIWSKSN
UniProt Q9NX08, whole entry, looked up: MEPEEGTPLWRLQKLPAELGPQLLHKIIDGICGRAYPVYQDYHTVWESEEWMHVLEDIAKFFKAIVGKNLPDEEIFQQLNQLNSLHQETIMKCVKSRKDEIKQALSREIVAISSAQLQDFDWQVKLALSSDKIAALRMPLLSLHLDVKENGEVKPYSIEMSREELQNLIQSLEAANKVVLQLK
UniProt Q7Z7A1: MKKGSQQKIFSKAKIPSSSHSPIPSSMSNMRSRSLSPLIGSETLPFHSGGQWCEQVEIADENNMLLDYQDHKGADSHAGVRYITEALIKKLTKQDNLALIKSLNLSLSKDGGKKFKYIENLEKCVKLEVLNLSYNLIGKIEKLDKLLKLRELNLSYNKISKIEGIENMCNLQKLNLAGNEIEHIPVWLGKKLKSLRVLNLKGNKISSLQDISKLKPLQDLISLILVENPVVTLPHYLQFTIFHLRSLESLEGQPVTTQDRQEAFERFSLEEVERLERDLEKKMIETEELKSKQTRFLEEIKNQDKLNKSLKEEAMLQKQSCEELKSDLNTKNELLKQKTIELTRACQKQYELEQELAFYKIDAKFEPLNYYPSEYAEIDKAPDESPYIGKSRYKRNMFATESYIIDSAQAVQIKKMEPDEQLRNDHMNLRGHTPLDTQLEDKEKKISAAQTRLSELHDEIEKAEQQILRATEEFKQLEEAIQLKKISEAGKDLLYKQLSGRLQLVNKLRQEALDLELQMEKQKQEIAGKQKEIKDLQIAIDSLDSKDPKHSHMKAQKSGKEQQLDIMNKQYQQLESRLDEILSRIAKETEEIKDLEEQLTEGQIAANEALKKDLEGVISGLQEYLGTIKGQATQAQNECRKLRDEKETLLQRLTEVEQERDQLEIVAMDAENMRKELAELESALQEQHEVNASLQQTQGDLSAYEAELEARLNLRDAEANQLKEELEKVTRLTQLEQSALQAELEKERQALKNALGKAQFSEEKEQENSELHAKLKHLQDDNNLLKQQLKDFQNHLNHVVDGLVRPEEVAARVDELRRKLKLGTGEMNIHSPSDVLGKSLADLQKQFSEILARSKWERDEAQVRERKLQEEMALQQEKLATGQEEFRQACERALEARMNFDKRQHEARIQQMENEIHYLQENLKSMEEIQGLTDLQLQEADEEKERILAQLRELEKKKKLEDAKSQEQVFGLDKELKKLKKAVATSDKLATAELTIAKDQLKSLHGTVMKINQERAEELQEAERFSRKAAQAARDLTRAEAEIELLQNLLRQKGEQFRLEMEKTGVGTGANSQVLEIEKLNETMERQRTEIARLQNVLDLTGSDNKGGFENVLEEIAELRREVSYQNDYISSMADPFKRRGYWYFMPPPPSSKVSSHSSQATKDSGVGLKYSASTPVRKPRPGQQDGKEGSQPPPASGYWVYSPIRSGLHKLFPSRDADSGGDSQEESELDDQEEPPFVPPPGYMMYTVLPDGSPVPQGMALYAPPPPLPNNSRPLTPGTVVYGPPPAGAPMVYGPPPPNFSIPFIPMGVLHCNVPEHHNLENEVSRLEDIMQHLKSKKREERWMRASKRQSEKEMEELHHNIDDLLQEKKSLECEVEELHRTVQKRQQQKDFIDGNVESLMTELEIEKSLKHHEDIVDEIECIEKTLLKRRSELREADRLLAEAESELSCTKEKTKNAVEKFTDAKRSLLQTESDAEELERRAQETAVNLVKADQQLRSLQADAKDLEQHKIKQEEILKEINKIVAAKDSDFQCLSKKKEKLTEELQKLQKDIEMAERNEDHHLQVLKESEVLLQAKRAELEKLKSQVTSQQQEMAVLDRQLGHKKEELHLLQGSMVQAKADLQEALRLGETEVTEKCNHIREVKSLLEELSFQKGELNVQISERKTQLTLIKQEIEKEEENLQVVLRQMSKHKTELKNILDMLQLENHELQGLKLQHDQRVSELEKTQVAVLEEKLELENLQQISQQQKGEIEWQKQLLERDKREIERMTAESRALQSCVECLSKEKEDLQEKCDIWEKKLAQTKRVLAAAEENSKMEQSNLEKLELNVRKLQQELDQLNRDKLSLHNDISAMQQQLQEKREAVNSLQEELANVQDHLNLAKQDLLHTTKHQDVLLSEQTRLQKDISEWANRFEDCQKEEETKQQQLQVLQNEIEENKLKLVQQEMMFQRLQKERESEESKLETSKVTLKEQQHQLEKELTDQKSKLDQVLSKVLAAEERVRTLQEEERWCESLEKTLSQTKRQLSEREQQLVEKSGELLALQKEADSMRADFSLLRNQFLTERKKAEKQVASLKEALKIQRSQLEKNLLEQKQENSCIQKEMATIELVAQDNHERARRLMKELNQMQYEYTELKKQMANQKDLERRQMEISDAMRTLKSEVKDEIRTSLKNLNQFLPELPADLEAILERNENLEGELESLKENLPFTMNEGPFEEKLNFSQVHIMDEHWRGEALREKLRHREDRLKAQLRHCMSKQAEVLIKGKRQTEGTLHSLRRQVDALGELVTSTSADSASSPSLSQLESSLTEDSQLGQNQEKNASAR

What was measured:
Assay in all cases: log2 fold change, soluble protein after heating vs DMSO (PISA); higher = thermal stabilisation; K562 lysate, 10 uM; active = over 0.2 and 3.5 SD of the protein, either way, in both replicates (recomputed)
alvocidib = compound: CN1CC[C@H](c2c(O)cc(O)c3c(=O)cc(-c4ccccc4Cl)oc23)[C@H](O)C1 [alvocidib]
Method in brief: (§1)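 Quantification was by TMTpro 16plex LC-MS/MS with equalised channel sums, applied to the supernatant after 21,000xg for 90 min. Samples were crude K562 extract at 1 mg/mL protein in PBS pH 7.4 with 1 mM MgCl2, treated with 10 μM compound for 30 min, heated for 3 min across 48°C-58°C, pooled and brought to 0.5% NP-40 at 4°C. Values are log-two fold changes in thermal stability relative to solvent controls, from duplicates.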

Tubastatin A = compound: CN1CCc2c(c3ccccc3n2Cc2ccc(C(=O)NO)cc2)C1 [Tubastatin A]
Method in brief: as §1

[1] = compound: CNC(=O)C1=CC=CC=C1NC2=NC(=NC=C2Cl)NC3=C(C=C(C=C3)N4CCOCC4)OC
Method in brief: as §1

defactinib = compound: CNC(=O)c1ccc(Nc2ncc(C(F)(F)F)c(NCc3nccnc3N(C)S(C)(=O)=O)n2)cc1 [defactinib]
Method in brief: as §1

[2] = compound: CNc1nc(-c2ccc3c(N)n[nH]c3c2)cc(N2C[C@@H](C(=O)NC3CCCCC3)CC[C@H]2C)n1
Method in brief: as §1

encorafenib = compound: COC(=O)N[C@@H](C)CNc1nccc(-c2cn(C(C)C)nc2-c2cc(Cl)cc(NS(C)(=O)=O)c2F)n1 [encorafenib]
Method in brief: as §1

[3] = compound: COC(=O)[C@H](CCSC)NC(=O)C1=C(C=C(C=C1)NC[C@H](CS)N)C2=CC=CC=C2
Method in brief: as §1

alisertib = compound: COc1cc(Nc2ncc3c(n2)-c2ccc(Cl)cc2C(c2c(F)cccc2OC)=NC3)ccc1C(=O)O [alisertib]
Method in brief: as §1

[4] = compound: COc1cc2nc(-c3cc(F)ccc3O)nc(N[C@@H]3CNC[C@H]3C(C)(C)O)c2cc1OC
Method in brief: as §1

gefitinib = compound: COc1cc2ncnc(Nc3ccc(F)c(Cl)c3)c2cc1OCCCN1CCOCC1 [gefitinib]
Method in brief: as §1

lapatinib = compound: CS(=O)(=O)CCNCc1ccc(-c2ccc3ncnc(Nc4ccc(OCc5cccc(F)c5)c(Cl)c4)c3c2)o1 [lapatinib]
Method in brief: as §1

pictilisib = compound: CS(=O)(=O)N1CCN(Cc2cc3nc(-c4cccc5[nH]ncc45)nc(N4CCOCC4)c3s2)CC1 [pictilisib]
Method in brief: as §1

crizotinib = compound: C[C@@H](Oc1cc(-c2cnn(C3CCNCC3)c2)cnc1N)c1c(Cl)ccc(F)c1Cl [crizotinib]
Method in brief: as §1

[5] = compound: C[C@H](C1=CC=C(C=C1)C(=O)NC2=C3C=CNC3=NC=C2)N
Method in brief: as §1

duvelisib = compound: C[C@H](Nc1ncnc2nc[nH]c12)c1cc2cccc(Cl)c2c(=O)n1-c1ccccc1 [duvelisib]
Method in brief: as §1

gandotinib = compound: Cc1cc(Nc2cc(CN3CCOCC3)c3nc(C)c(Cc4ccc(Cl)cc4F)n3n2)n[nH]1 [gandotinib]
Method in brief: as §1

tozasertib = compound: Cc1cc(Nc2cc(N3CCN(C)CC3)nc(Sc3ccc(NC(=O)C4CC4)cc3)n2)n[nH]1 [tozasertib]
Method in brief: as §1

doramapimod = compound: Cc1ccc(-n2nc(C(C)(C)C)cc2NC(=O)Nc2ccc(OCCN3CCOCC3)c3ccccc23)cc1 [doramapimod]
Method in brief: as §1

bafetinib = compound: Cc1ccc(NC(=O)c2ccc(CN3CC[C@H](N(C)C)C3)c(C(F)(F)F)c2)cc1Nc1nccc(-c2cncnc2)n1 [bafetinib]
Method in brief: as §1

[6] = compound: Cc1cccc(CC(=O)N2CCc3c2ccc(-c2cn(C)c4ncnc(N)c24)c3F)n1
Method in brief: as §1

Measured: log2 fold change

COL15A1 (UniProt P39059)
inactive: alvocidib -0.036 | Tubastatin A 0.031 | [1] 0.017 | defactinib 0.027 | [2] 0.037 | encorafenib 0.017 | [3] 0.005 | alisertib -0.063 | [4] 0.016 | gefitinib 0.038 | lapatinib -0.034 | pictilisib -0.025 | crizotinib 0.021 | [5] -0.072 | duvelisib -0.018 | gandotinib 0.091 | tozasertib 0.011 | doramapimod -0.014 | bafetinib 0.051 | [6] 0.045

COMMD5 (UniProt Q9GZQ3)
inactive: alvocidib -0.026 | Tubastatin A 0.04 | [1] 0.043 | defactinib 0.018 | [2] 0.026 | encorafenib 0.162 | [3] -0.125 | alisertib -0.02 | [4] 0.01 | gefitinib -0.044 | lapatinib 0.026 | pictilisib -0.067 | crizotinib -0.017 | [5] -0.03 | duvelisib -0.018 | gandotinib -0.011 | tozasertib 0.196 | doramapimod 0.023 | bafetinib 0.014 | [6] 0.017

CPSF1 (UniProt Q10570)
inactive: alvocidib -0.015 | Tubastatin A -0.066 | [1] 0 | defactinib -0.012 | [2] -0.016 | encorafenib 0.041 | [3] 0.043 | alisertib -0.003 | [4] -0.026 | gefitinib -0.013 | lapatinib 0.021 | pictilisib -0.036 | crizotinib 0.001 | [5] -0.046 | duvelisib -0.004 | gandotinib 0.031 | tozasertib -0.007 | doramapimod -0.005 | bafetinib -0.01 | [6] 0.027

CRABP2 (UniProt P29373)
inactive: alvocidib -0.025 | Tubastatin A -0.116 | [1] -0.04 | defactinib -0.015 | [2] 0.006 | encorafenib -0.209 | [3] 0.082 | alisertib -0.109 | [4] -0.018 | gefitinib 0.01 | lapatinib -0.008 | pictilisib -0.026 | crizotinib -0.025 | [5] 0.041 | duvelisib -0.056 | gandotinib 0.091 | tozasertib 0.241 | doramapimod 0.078 | bafetinib 0.014 | [6] -0.138

COX4I1 (UniProt P13073)
inactive: alvocidib -0.009 | Tubastatin A 0.046 | [1] 0.001 | defactinib 0.006 | [2] 0.043 | encorafenib -0.002 | [3] -0.013 | alisertib 0.032 | [4] 0.004 | gefitinib -0.051 | lapatinib -0.035 | pictilisib -0.048 | crizotinib 0.033 | [5] -0.058 | duvelisib -0.012 | gandotinib 0.061 | tozasertib -0.017 | doramapimod -0.022 | bafetinib -0.03 | [6] 0.016

CORO7 (UniProt P57737)
inactive: alvocidib 0.001 | Tubastatin A 0.011 | [1] -0.092 | defactinib 0.191 | [2] -0.05 | encorafenib -0.081 | [3] 0.061 | alisertib 0.259 | gefitinib -0.062 | crizotinib -0.004 | [5] -0.139 | duvelisib -0.084 | gandotinib 0 | tozasertib 0.092 | doramapimod 0.016 | [6] -0.335

COX5B (UniProt P10606)
inactive: alvocidib 0.053 | Tubastatin A 0.075 | [1] 0.03 | defactinib 0.055 | [2] 0.031 | encorafenib 0.011 | [3] -0.031 | alisertib 0.045 | [4] 0.022 | gefitinib -0.159 | lapatinib 0.045 | pictilisib -0.019 | crizotinib 0.036 | [5] 0.13 | duvelisib -0.011 | gandotinib -0.119 | tozasertib 0.01 | doramapimod 0.011 | bafetinib 0.003 | [6] -0.07

COPS7A (UniProt Q9UBW8)
inactive: alvocidib -0.067 | Tubastatin A 0.033 | [1] -0.01 | defactinib 0.008 | [2] 0.008 | encorafenib 0.058 | [3] -0.009 | alisertib -0.027 | [4] -0.01 | gefitinib -0.032 | lapatinib 0.004 | pictilisib 0.028 | crizotinib 0.019 | [5] -0.016 | duvelisib -0.005 | gandotinib -0.016 | tozasertib 0.041 | doramapimod -0.011 | bafetinib -0.002 | [6] 0.046

COMMD8 (UniProt Q9NX08)
inactive: alvocidib 0.093 | Tubastatin A 0.117 | [1] 0.113 | defactinib 0.006 | [2] 0.024 | encorafenib 0.104 | [3] -0.296 | alisertib 0.063 | [4] 0.019 | gefitinib -0.189 | lapatinib 0.061 | pictilisib -0.138 | crizotinib -0.02 | [5] 0.019 | duvelisib -0.041 | gandotinib -0.178 | tozasertib -0.091 | doramapimod -0.028 | bafetinib -0.143 | [6] -0.079

CNTRL (UniProt Q7Z7A1)
inactive: alvocidib -0.086 | Tubastatin A -0.024 | [1] 0.015 | defactinib 0.014 | [2] 0.01 | encorafenib -0.003 | [3] 0.065 | alisertib -0.028 | gefitinib 0.078 | pictilisib -0.019 | crizotinib -0.032 | [5] -0.08 | duvelisib 0.024 | gandotinib 0.088 | tozasertib -0.022 | doramapimod 0.056 | bafetinib -0.039 | [6] 0.126

CNOT6L (UniProt Q96LI5)
inactive: alvocidib -0.091 | Tubastatin A 0.022 | [1] 0.022 | defactinib 0.046 | [2] 0.013 | encorafenib 0.036 | [3] 0.066 | alisertib -0.005 | [4] 0.037 | gefitinib -0.033 | lapatinib -0.03 | pictilisib -0.042 | crizotinib -0.076 | [5] -0.251 | duvelisib -0.001 | gandotinib 0.065 | tozasertib 0.064 | doramapimod 0.012 | bafetinib -0.1 | [6] 0.114

CNOT4 isoform 9 (UniProt O95628)
inactive: alvocidib -0.351 | Tubastatin A 0.04 | [1] -0.087 | defactinib -0.085 | [2] -0.047 | encorafenib 0.037 | [3] 0.003 | [4] 0.002 | lapatinib -0.006 | pictilisib -0.014 | crizotinib 0.077 | duvelisib -0.009 | gandotinib 0.298 | tozasertib 0.04 | doramapimod -0.184 | bafetinib -0.031 | [6] 0.271
active: [5] -1.01
